Data published in the supplement of paper PMC8256030.
“And” between values parts separate entries of the source, which are not always exact repeats. Equal values may be shown once. Some of the results follow. This data set is noisy: repeats of one test often differ as much as different tests do.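 HEK293T cells were given each compound shortly before transfection with a reporter in which red mCherry is followed by the SARS-CoV-2 frameshift element and then GFP in the −1 frame, so GFP appears only after frameshifting.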

What follows are compounds tested on SARS-CoV-2 -1 PRF reporter mCherry-FSE-GFP(-1) (assay: percent effect, decrease of GFP/mCherry ratio (-1 PRF reporter) relative to controls; higher = stronger frameshift inhibition). Settings: 10 µM; 24 h; HEK293T.

SMILES | percent effect
C1CCC(C(CC2CCCCN2)C2CCCCC2)CC1 (configuration not stated) [perhexiline] | -1.02%
C[C@H](CCC(=O)O)[C@H]1CC[C@H]2[C@@H]3CC[C@@H]4C[C@H](O)CC[C@]4(C)[C@H]3C[C@H](O)[C@]12C [Deoxycholic Acid] | -3.49%
C=CC1=C(C(=O)O)N2C(=O)[C@@H](NC(=O)/C(=N\OCC(=O)O)c3csc(N)n3)[C@H]2SC1 [cefixime] | 0.442%
CC=CC1=C(C(=O)O)N2C(=O)[C@@H](NC(=O)[C@H](N)c3ccc(O)cc3)[C@H]2SC1 [Cefprozil] | -0.279%
CN(C)[C@@H]1C(=O)C(C(=O)NCN2CCCC2)=C(O)[C@@]2(O)C(=O)C3=C(O)c4c(O)cccc4[C@@](C)(O)[C@H]3C[C@@H]12 [Rolitetracycline] | -2.86%
CC(CN1c2ccccc2Sc2ccccc21)N(C)C (configuration not stated) [promethazine] | 2.86% and -10.2%
O=C(O)CCc1nc(-c2ccccc2)c(-c2ccccc2)o1 [oxaprozin] | -2.57%
COCC1=C(C(=O)OC(C)OC(=O)OC(C)C)N2C(=O)[C@@H](NC(=O)/C(=N\OC)c3csc(N)n3)[C@H]2SC1 (some centres not stated) | -7.1%
OC[C@H]1O[C@@H](c2ccc(Cl)c(Cc3ccc(O[C@H]4CCOC4)cc3)c2)[C@H](O)[C@@H](O)[C@@H]1O [Empagliflozin] | 2.97%
Cc1cn([C@H]2C[C@H](F)[C@@H](CO)O2)c(=O)[nH]c1=O [alovudine] | 15.1%
CN[C@@H]1[C@H](O[C@H]2[C@H](O[C@H]3[C@H](O)[C@@H](O)[C@H](N=C(N)N)[C@@H](O)[C@@H]3N=C(N)N)O[C@@H](C)[C@]2(O)C=O)O[C@@H](CO)[C@H](O)[C@H]1O [streptomycin] | -1.23%
CC(=O)[C@@]1(O)[C@H](O)C[C@H]2[C@@H]3CCC4=CC(=O)CC[C@]4(C)[C@H]3CC[C@@]21C [algestone] | -0.9%
CC(=O)SC[C@@H](C)C(=O)N1CCC[C@H]1C(=O)N[C@@H](Cc1ccccc1)C(=O)O [alacepril] | 5.09%
COc1ccc(/C=C/C(=O)OCCC(C)C)cc1 [amiloxate] | -5.09%
N#CC(c1ccc(Cl)cc1)c1c(Cl)cc(-n2ncc(=O)[nH]c2=O)cc1Cl (configuration not stated) [diclazuril] | -3.11%
CC(=O)OCC(=O)[C@@]1(O)CC[C@H]2[C@@H]3CCC4=CC(=O)C=C[C@]4(C)[C@H]3[C@@H](O)C[C@@]21C | -7.4%

SMILES | percent effect
CCN1CCN(C(=O)N[C@@H](C(=O)N[C@@H]2C(=O)N3[C@@H]2SC(C)(C)[C@@H]3C(=O)O)c2ccccc2)C(=O)C1=O [Piperacillin] | -8.53%
CC(C)[C@H]1CC[C@H](C(=O)N[C@H](Cc2ccccc2)C(=O)O)CC1 | -2.18%
O=c1[nH]c2ccccc2c(=O)n1CCCN1CCN(c2cccc(Cl)c2)CC1 [cloperidone] | -5.31%
O=C(CCCN1CCC(C(=O)c2ccc(F)cc2)CC1)c1ccc(F)cc1 [lenperone] | -1.09%
CC(=O)[C@@]1(O)CC[C@H]2[C@@H]3C=C(Cl)C4=CC(=O)[C@@H]5C[C@@H]5[C@]4(C)[C@H]3CC[C@@]21C [cyproterone] | -2.64%
CC(C)(C)NC[C@H](O)c1ccc(O)c(CO)c1 [levosalbutamol] | -0.519%
CC(C)[C@@H](C)/C=C/[C@@H](C)[C@H]1CC[C@H]2/C(=C/C=C3\C[C@@H](O)CC[C@@H]3C)CCC[C@]12C [Antitanil] | -3.5%
O=C(O)COCCN1CCN([C@H](c2ccccc2)c2ccc(Cl)cc2)CC1 | 0.998%
CN(C(=O)CCCOc1ccc2[nH]c(=O)ccc2c1)C1CCCCC1 [cilostamide] | 3.25%
Cn1c([N+](=O)[O-])cnc1COC(N)=O [ronidazole] | -3.51%
O=C1OC(c2ccc(O)cc2)(c2ccc(O)cc2)c2ccccc21 [phenolphthalein] | -4.39%
CCCCOc1ccc(OCCCN2CCOCC2)cc1 [pramocaine] | -2.13%
CC(=O)N(O)CCCCCNC(=O)CCC(=O)N(O)CCCCCNC(=O)CCC(=O)N(O)CCCCCN [deferoxamine] | -7.29%
Nc1nc(=O)c2c([nH]1)NCC(CNc1ccc(C(=O)N[C@@H](CCC(=O)O)C(=O)O)cc1)N2C=O (some centres not stated) [Leucovorin] | -3.42%
CN1CCC(Nc2ncc3ncnc(Nc4ccc(F)c(Cl)c4)c3n2)CC1 [falnidamol] | -3.66%
OC(CCN1CCCCC1)(c1ccccc1)C1CCCC1 (configuration not stated) [cycrimine] | -2.24%

Taken from above.
CC(C)[C@@H](C)/C=C/[C@@H](C)[C@H]1CC[C@H]2/C(=C/C=C3\C[C@@H](O)CC[C@@H]3C)CCC[C@]12C [Antitanil] – percent effect: -3.5%
O=c1[nH]c2ccccc2c(=O)n1CCCN1CCN(c2cccc(Cl)c2)CC1 [cloperidone] – percent effect: -5.31%
